Patent US10981913B2, “11C -labeled 06 -benzylguanine, pet probe capable of visualizing 06-methyl guanine methyl-transferase activity, and production method of the same” (NATIONAL CENTER FOR GERIATRICS AND GERONTOLOGY, priority 2016, dated 2021)
At least one read-out could not be matched to a standard name with certainty.

Assay: Pharmacokinetics test using rats (brain permeability, blood and brain tissue by HPLC)
Type: in vivo, Sprague-Dawley rats
Details: rat, i.v. 10 mg/kg
Method: Regarding O^6-(3-methylbenzyl) guanine (2) and O^6-(4-methylbenzyl) guanine (3) not labeled with ^11C synthesized by the above method (that is, cold), brain permeability was evaluated by the following method.
After intravenous administration (10 mg/kg) of O^6-(3-methylbenzyl) guanine (2) or O^6-(4-methylbenzyl) guanine (3) to Sprague-Dawley rats, blood and brain tissues were collected after a predetermined time, and analyzed by HPLC.

SMILES	blood-brain barrier permeability
Cc1cccc(COc2nc(N)nc3nc[nH]c23)c1 [Compound 2, O^6-(3-methylbenzyl) guanine]	substances having blood-brain barrier permeability
Cc1ccc(COc2nc(N)nc3nc[nH]c23)cc1 [Compound 3, O^6-(4-methylbenzyl) guanine]	substances having blood-brain barrier permeability
